Measured values from PubChem BioAssay AID1347423 (Functional Genomics Laboratory (NCATS/FGL), 2020).
About 210 (0.4%) of roughly 52,000 sequences were called active.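 How the source made its calls: active means gene whose silencing raises cell survival under the drug, median off-target-corrected z-score across its silencing RNAs 2 or more; inactive means the rest.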 Some of the results follow.

test: Resistance to Poly (ADP-Ribose) Polymerase inhibitor: Gene Identification via Genome-wide siRNA Screen; conditions: mouse BRCA2 R2336H ES cells, olaparib, CellTiter-Glo viability; active compounds read high
Procedure, shortened: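 Mouse BRCA2 R2336H ES cells were reverse-transfected with siRNA (20 nM final), treated at 48 h with 500 nM olaparib, and read by CellTiter-Glo after 72 h. Scores: MAD-based z per siRNA, median per gene, seed off-target correction.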

Sequence	z-score
GGUCUUCUUGACAAUGUAATT against Bpnt1	inactive: -0.851
GGCACAUUGCUGAAGCCCATT against Aldoa	inactive: -2.31
GCUGGGUUGCUGAUUUUUGTT against Arl5	inactive: 0.0688
GCGAGUCUAGAUGUCUAGCTT against 5730407K14Rik	inactive: -0.0544
GGAAGAAUCCACUUUGAACTT against Chi3l4	inactive: 0.032
CGUGGUGGUUGUUCGAGUATT against BC057371	inactive: -0.541
GGCCUAAUGAAUUUGGUCATT against A630090P18	inactive: 0.43
CAAGCAGUAAGGAUAUCCATT against Nalp-epsilon	inactive: 2.25
GGAACAUGUAUCCCAAAGCTT against 2310002J15Rik	inactive: -0.8
GGACUUGACCUCAAGGGAATT against Sox6	inactive: 0.927
GGAUUUGAUGUGUUCAAUGTT against Nmt2	inactive: -0.752
GGGUAUGGACCCUAUAUAATT against Osgep	inactive: -0.77
GACACCCUGUGACACCAAGTT against Sprr1b	inactive: -2.94
CGAACGUGAGCUACUGUGGTT against Cacnb4	inactive: -0.243
CCAUCUGGCACUUCAACAUTT against Csnk1g1	inactive: -0.87
GGAUGAAAGAGUUUCUGCATT against Spin	inactive: 0.0559
GCCUGUGUGAUGCAACAGGTT against Ifna5	inactive: 0.813
GGAUUUUCACCAACAGCCUTT against Gh	inactive: -1.17
ACCCUCAAUGAUUCAGGAATT against 4930415J05Rik	inactive: -0.0913
GCUCUUAUGUUUAAUAUGGTT against Mrps2	inactive: -0.217
GGUUUUAGGAUCCUAGAAGTT against Ap1s1	inactive: 0.679
GUCUUCCCUCAUCCUUUGATT against Cox8a	inactive: -1.2
GGACGAUAGGACCCAAAGGTT against Sh3tc1	inactive: 0.266
CCUAUAGCAAUGGCAGCAGTT against Pkn1	inactive: -0.103
GGACGUGAGCUCCAUCAUUTT against Mg29	inactive: -1.57
GCCCUCAUUCAACACAUAATT against Clca3	inactive: 0.21

At a glance, some entries already given:
Sequence	z-score
CGUGGUGGUUGUUCGAGUATT against BC057371	inactive: -0.541
GGCCUAAUGAAUUUGGUCATT against A630090P18	inactive: 0.43

Individual results from the entries so far.
z-score, GGAACAUGUAUCCCAAAGCTT against 2310002J15Rik reads inactive: -0.8
z-score, CAAGCAGUAAGGAUAUCCATT against Nalp-epsilon reads inactive: 2.25
z-score, GGUCUUCUUGACAAUGUAATT against Bpnt1 reads inactive: -0.851
z-score, GCUGGGUUGCUGAUUUUUGTT against Arl5 reads inactive: 0.0688

Further entries.

Sequence	z-score
GGGCACAUUAUGCAGAACUTT against Tnfrsf19l	inactive: 1.76
GCACAGUCCAUGAAUCAGATT against 4930432K21Rik	inactive: -0.903
CCCUAUUAAGAUGUCUACGTT against Rwdd2	inactive: 0.686
GUUUCUCGAAGAGCAUCCUTT against Cyb5	inactive: 0.711
CCGGCUAUGAAGAUGAGUATT against Cox6a1	inactive: -0.089
GGGCUCUGUCAGAUAAUCUTT against LOC432988	inactive: 0.314
GCGACCGUAUUGUCACUUGTT against Arpc1a	inactive: 0.0743
GCAGUACGCUGCAUUUAAATT against Mtrf1l	inactive: -0.215
GGGCCUUGAAUCUUUGUACTT against Galt	inactive: -0.358
GCUACUCAUGCUAGAUGACTT against Gba	inactive: 1.64
GGAGUUUCAGGUUUUACUUTT against 4921523A10Rik	inactive: 0.686
GUGGUUUGCUACCCAGCAUTT against Ear6	inactive: -1.85
GGAUUUAUCCUGGUGACUUTT against 2310005N03Rik	inactive: 0.136
CGGAUGAAUUCCAGCUUCATT against Vdac1	inactive: 1.76
GCUCCACUGGCAGUCACUUTT against 4833416I09Rik	inactive: -0.44
GAAAUCAGAAGAAAUGAAGTT against 1810007E14Rik	inactive: 1.05
GGGAUGCAGUAAAUGUGUATT against Acaa1	inactive: 0.568
GGACAGAGGCGAUAGAAUCTT against Pou6f1	inactive: 0.405
GGGACAAAAUGUGAAGACUTT against Pap	inactive: 0.691
GGCCACGGACAUUUGCAUGTT against Plekhf1	inactive: 0.14
GCAAAUCCCAGUCUCACCATT against 2600017H02Rik	inactive: -2.73
GCCAAAAGUCUCAGACUGATT against AW049829	inactive: -1.67
GGGUCAAGCAGUGUAAAGATT against Dnajb12	inactive: -0.687
GGAAAGAAAGAGAAGAACATT against Bhc80	inactive: -0.347
GGAGAGGAGAAAGUACCGUTT against A430096B05Rik	inactive: 0.521
CAUCAUUGAACAACUUGACTT against Olfr1466	inactive: -0.208

Sequence	z-score
GGAAGCUUCUGAGAGUAAATT against 4930503E14Rik	inactive: 0.287
GGGAGACCUUACUUUUUAATT against LOC436240	inactive: -0.0832
GGUUACUGCUCUCAUGUACTT against Olfr247	inactive: -0.854
GGCAAGAAUGUUGUCCACCTT against Dnaja4	inactive: 1.49
CCGAGUGGUACUUCUGUAUTT against Ift172	inactive: 0.0881
CCUGUAAAGUCUAAAUAACTT against Tatdn1	inactive: -0.436
GGAAGAUAGUGCGAUCCAATT against Adcy5	inactive: -1.06
GGUGGUGUGUUUAAUCCCATT against 9330133O14Rik	inactive: 0.31
GGAUAUUGAUUGCUUUGUUTT against Uox	inactive: -0.135
GGAAGUCAUUAUGUGAUCCTT against Nfyb	inactive: -0.348
CCCUCAGAUGAUCUGUGCCTT against Tsp50	inactive: 3.4
GGUCCUAGGCCUACUCAUCTT against Mcp	inactive: -1.04
GCAGUGCUCUUUAGCAUAATT against 4933416E05Rik	inactive: 3.01
GCGGCCUCUUGAAUGAUUCTT against Ccndbp1	inactive: -1.48
CGGGCUCUUUGACAGUUCATT against Ppt2	inactive: -0.902
GCGCAUCCAGUGGUCCUUUTT against Trpv5	inactive: -0.142
GGGCAUGAAGAGCUACAUCTT against Snag1	inactive: -1.94
GGCACGUUAUGAAGACCAGTT against 4921506M07Rik	inactive: 2.53
GCCGACGUAGUGACAUUCUTT against Crybb3	inactive: -1.17
GGAUUAAAAUACCUUCACGTT against Map3k5	inactive: 0.351
GGAAAGAGAUACAGAAUCUTT against Brca2	inactive: -2.71
GGAGGAUAUAAAAAAGAAGTT against BC016226	inactive: -1.2
GCUCCGUAAGAAGUCUCGUTT against Dhx16	inactive: 0.915
CCGGAUCCUGGUUAAAAGUTT against Fgd1	inactive: -0.368
GCCAAUGAAAACCUUUUGCTT against BC003281	inactive: -0.334
GGGUAGGUUAGGGAGUAAATT against Siah1a	inactive: -0.917

Given as a markdown table: part of the list above.

| Sequence | z-score |
| --- | --- |
| CGGGCUCUUUGACAGUUCATT against Ppt2 | inactive: -0.902 |
| CCGGAUCCUGGUUAAAAGUTT against Fgd1 | inactive: -0.368 |

Going on with the list:

Sequence	z-score
GCAGUACAAAACCAAGCGGTT against Slc1a1	inactive: -1.37
GUCCCAGUACUUCUUGUUUTT against V1rc33	inactive: 0.755
GGGAUUAAAAUCCUAUCUUTT against BC014699	inactive: -2.46
GCAAGAGGGUUUGUUCCUUTT against Spc18	inactive: -0.714
GGUAAGACCUCACUUGGUCTT against A630024J02Rik	inactive: 0.908
GCAGUGUGAACAAUUGAGATT against Mpl	inactive: 0.238
GCACUCGAAAGCGAUGUAATT against LOC378878	inactive: -1.72
GGUUAAGAAUAACGAAAGGTT against Ipf1	inactive: 1.16
CCCAAUCAGCAAAGACGACTT against 5730502D15Rik	inactive: -1.09
ACAACUAUACUGGACAGUCTT against Olfr329	inactive: 0.184
GGAACCUUAAAGAUAGAUUTT against Npepps	inactive: -0.119
GGGCAACCCACAAUAAAAATT against Eppb9	inactive: 1.26
GGAGGUCGCUACCUUCUAUTT against Top1mt	inactive: -0.693
CGAUGACGAAUACAACCGGTT against Nkx6-2	inactive: 0.663
GCAAACAUUCGAGAUCUAUTT against Sel1h	inactive: -0.355
GGUAGUAGGGAACCAUAAATT against D10628	inactive: -0.58
GGCUCUGUGGCACACUUAUTT against Olfr1211	inactive: -0.823
GGAACUCACUACAGUUUAGTT against Dhx35	inactive: -1.2
GGAACUGGAUCCUAGGAUATT against BC003251	inactive: 0.704
GGAUUGUGGGUUUAUAUAATT against Olfr835	inactive: 1.1
GGAAAGGACUGUAGAGCGATT against Eml4	inactive: -0.175
GCUCAGACCACCUAAGAGUTT against Tmprss3	inactive: 1.89
GGAGAUCAACCACAAUGUUTT against Tekt1	inactive: -1.81
CCUAUCUCACAUAGGUUUATT against Grb14	inactive: -0.162
GGUUAGUUUGUUCAAAUCCTT against Slc6a3	inactive: -0.0303
GGCAGCAGGAUGCAGAAAUTT against Ngef	inactive: -0.951
